Measured values taken from the supplement of paper PMC7666118.
Some of the results follow.

Chains of the proteins cited; added tags and fusions are not shown. Lines headed by an entry give the natural chain unless they say otherwise; changes in a name come on top.
UniProt Q9BXP5: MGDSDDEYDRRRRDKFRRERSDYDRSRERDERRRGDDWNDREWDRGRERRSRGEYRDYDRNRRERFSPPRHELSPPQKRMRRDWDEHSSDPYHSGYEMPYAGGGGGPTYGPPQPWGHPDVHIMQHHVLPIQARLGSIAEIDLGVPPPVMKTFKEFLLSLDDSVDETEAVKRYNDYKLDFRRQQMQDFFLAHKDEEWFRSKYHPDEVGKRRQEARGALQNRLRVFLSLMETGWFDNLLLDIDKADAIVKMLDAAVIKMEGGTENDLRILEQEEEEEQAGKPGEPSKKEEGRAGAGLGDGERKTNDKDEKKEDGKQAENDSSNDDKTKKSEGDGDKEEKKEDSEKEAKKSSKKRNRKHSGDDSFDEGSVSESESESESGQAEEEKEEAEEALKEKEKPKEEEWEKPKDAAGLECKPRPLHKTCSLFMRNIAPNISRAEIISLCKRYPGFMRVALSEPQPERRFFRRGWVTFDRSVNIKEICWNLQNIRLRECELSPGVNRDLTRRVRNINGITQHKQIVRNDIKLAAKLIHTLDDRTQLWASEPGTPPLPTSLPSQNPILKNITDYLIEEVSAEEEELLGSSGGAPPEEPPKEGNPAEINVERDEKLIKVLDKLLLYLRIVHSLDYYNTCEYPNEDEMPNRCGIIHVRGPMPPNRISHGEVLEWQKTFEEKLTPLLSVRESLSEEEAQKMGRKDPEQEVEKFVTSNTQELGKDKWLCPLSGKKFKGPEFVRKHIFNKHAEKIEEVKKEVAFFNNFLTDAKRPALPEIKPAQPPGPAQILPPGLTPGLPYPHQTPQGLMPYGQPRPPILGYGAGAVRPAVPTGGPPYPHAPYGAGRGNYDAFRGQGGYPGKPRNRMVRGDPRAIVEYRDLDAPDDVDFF
UniProt P54259: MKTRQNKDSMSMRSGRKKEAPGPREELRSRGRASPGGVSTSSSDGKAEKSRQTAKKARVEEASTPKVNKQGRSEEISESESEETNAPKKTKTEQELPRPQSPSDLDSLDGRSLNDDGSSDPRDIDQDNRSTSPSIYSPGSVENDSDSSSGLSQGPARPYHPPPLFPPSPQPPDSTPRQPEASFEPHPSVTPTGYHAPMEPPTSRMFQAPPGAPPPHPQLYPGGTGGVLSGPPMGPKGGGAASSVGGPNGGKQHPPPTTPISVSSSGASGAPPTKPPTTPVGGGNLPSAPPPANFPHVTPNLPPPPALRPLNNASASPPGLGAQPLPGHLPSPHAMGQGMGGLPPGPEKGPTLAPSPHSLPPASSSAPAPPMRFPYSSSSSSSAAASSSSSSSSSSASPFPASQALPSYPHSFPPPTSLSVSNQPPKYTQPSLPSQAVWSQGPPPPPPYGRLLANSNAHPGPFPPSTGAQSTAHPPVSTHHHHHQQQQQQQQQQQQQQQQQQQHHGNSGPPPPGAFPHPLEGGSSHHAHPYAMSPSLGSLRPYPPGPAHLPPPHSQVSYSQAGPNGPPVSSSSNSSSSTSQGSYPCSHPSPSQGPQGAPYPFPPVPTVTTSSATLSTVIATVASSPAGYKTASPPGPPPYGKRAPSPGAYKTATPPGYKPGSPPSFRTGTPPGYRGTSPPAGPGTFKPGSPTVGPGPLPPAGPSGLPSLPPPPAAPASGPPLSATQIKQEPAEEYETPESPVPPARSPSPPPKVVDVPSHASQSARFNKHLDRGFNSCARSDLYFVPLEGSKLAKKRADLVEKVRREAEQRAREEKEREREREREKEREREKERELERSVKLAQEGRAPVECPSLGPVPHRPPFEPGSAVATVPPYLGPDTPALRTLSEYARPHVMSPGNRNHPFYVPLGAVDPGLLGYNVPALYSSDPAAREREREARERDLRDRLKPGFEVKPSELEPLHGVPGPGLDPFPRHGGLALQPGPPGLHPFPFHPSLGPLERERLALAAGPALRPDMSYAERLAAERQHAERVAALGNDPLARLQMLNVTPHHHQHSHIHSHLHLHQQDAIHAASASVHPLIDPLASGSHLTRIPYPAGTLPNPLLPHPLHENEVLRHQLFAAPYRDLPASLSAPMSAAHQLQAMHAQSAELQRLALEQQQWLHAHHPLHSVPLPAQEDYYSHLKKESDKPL
UniProt O14981: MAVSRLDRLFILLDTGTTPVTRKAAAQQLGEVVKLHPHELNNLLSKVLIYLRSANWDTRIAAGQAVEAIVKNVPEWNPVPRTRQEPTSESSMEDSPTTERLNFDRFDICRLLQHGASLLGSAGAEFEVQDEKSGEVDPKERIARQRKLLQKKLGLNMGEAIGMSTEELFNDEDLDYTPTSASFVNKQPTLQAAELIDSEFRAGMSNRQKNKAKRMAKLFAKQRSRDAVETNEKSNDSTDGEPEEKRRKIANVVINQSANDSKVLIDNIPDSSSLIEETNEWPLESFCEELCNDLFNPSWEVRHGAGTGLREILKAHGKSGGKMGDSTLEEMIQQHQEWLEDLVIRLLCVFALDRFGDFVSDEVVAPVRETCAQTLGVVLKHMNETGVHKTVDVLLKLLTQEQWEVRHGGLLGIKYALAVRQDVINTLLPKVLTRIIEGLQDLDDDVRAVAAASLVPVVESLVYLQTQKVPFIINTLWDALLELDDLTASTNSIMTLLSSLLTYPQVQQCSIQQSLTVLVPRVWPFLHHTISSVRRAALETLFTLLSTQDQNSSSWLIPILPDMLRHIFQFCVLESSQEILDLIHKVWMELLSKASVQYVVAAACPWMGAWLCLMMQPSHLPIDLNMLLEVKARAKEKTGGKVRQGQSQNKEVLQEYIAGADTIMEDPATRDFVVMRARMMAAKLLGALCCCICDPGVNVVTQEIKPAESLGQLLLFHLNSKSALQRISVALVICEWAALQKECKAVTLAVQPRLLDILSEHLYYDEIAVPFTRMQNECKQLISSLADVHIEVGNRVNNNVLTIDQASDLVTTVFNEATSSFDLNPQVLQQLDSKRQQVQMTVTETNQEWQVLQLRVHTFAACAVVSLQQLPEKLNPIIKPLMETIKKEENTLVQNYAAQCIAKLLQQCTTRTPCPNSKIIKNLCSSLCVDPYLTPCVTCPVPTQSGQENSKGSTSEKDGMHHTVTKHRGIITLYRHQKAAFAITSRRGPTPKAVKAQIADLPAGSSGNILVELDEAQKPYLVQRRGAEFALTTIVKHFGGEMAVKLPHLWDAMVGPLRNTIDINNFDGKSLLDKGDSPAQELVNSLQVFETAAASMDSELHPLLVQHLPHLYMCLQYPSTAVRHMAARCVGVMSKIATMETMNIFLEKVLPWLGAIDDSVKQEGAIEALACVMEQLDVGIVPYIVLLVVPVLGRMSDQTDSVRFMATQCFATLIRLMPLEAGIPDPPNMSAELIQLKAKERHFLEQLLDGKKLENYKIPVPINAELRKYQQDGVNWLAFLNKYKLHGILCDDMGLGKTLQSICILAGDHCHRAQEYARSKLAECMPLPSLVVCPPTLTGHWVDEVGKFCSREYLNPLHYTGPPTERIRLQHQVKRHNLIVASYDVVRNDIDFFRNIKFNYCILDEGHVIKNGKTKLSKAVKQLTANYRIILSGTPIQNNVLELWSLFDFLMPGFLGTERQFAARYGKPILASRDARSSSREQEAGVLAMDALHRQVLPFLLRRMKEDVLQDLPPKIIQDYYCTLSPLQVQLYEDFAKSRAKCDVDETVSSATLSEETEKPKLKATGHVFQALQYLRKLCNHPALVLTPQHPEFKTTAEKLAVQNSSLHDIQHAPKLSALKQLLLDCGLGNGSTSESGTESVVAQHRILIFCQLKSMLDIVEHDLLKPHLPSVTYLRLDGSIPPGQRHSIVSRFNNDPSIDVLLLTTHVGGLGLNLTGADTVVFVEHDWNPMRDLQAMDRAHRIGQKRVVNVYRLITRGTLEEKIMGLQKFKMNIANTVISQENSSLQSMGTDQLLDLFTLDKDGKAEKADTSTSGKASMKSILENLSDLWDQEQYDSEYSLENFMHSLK
UniProt Q7Z5L2: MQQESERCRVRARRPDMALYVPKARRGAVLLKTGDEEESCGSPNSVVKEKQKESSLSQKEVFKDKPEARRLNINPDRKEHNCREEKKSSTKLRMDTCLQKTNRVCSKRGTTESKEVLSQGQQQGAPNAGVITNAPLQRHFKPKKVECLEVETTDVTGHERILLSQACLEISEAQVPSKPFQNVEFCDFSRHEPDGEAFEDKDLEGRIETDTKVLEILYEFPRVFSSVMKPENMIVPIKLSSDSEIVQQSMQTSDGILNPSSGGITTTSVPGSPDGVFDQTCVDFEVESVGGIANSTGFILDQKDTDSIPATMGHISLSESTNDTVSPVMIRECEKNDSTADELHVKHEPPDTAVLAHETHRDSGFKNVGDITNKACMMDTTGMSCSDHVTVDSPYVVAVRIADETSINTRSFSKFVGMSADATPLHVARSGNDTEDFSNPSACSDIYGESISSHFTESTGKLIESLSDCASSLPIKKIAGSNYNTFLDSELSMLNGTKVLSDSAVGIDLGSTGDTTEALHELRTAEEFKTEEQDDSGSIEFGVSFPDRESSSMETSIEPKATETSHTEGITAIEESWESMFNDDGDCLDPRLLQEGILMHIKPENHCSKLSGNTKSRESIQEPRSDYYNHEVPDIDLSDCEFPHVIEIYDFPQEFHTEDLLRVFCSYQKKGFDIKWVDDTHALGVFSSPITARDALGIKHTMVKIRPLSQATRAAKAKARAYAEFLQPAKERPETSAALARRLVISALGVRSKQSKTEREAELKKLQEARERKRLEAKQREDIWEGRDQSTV
UniProt P23634: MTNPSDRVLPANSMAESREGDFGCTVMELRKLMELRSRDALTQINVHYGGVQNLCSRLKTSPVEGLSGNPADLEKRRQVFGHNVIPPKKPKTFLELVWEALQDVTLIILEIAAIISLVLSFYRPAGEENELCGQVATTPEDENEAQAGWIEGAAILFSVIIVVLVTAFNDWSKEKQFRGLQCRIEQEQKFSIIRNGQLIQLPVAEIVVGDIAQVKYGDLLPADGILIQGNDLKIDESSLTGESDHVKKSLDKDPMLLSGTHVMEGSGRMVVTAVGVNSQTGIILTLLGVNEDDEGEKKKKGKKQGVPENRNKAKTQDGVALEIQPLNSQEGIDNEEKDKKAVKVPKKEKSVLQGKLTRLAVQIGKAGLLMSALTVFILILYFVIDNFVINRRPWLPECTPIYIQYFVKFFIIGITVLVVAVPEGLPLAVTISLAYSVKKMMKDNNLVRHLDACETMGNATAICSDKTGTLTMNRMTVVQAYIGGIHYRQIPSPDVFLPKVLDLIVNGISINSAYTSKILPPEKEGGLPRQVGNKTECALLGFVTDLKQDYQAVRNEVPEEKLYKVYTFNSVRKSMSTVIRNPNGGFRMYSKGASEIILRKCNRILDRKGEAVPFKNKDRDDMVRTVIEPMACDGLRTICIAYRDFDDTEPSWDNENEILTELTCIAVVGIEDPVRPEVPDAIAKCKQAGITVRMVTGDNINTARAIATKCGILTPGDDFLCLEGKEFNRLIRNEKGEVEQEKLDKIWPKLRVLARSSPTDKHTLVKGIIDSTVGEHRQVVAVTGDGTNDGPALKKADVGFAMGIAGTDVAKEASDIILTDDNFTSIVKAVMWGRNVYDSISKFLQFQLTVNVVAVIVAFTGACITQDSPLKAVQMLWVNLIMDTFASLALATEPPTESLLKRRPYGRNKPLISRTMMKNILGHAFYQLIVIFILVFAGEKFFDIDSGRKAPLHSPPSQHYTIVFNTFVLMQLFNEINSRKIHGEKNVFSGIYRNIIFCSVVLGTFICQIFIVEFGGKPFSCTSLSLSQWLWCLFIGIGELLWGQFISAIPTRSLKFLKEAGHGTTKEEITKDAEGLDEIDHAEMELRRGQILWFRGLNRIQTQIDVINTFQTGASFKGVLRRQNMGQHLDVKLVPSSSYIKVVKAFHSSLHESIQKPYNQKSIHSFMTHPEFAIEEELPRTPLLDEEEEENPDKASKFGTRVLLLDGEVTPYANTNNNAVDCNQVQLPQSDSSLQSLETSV
UniProt P30049: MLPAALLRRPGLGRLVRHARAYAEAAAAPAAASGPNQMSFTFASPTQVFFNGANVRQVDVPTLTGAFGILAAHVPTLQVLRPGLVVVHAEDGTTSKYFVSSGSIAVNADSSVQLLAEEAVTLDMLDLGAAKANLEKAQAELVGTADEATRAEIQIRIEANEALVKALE
UniProt P18846: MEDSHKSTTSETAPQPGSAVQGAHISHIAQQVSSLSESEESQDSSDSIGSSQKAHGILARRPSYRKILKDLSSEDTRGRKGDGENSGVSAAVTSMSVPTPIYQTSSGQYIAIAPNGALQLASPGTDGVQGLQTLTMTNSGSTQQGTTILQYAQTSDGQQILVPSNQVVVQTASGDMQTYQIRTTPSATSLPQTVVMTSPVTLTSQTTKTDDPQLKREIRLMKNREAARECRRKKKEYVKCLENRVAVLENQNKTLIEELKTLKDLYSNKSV
UniProt A2VDF0: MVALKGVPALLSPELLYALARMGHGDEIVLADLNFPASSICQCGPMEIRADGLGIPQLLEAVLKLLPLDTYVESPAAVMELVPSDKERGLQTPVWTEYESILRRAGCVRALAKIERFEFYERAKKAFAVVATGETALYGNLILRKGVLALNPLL

Each target was assayed with COc1ccc(Cn2ccc3ccc(C(=O)NO)cc32)cc1 (assay: dose-dependent thermal stabilisation call (2D-TPP, DLPTP, 10% FDR) (binary (1 = stabilised)); higher = stabilised by the compound). Conditions: system: HL-60 intact cells; concentration range 0.04-10 µM.

Row | Target | dose-dependent thermal stabilisation call
1 | ARS2 (UniProt Q9BXP5) | inactive: 0
2 | ATN1 (UniProt P54259) | inactive: 0
3 | BTAF1 (UniProt O14981) | inactive: 0
4 | C10ORF28 (UniProt Q7Z5L2) | inactive: 0
5 | ATP2B4 (UniProt P23634) | inactive: 0
6 | ATP5D (UniProt P30049) | inactive: 0
7 | ATP6V1B2 (UniProt P21281) | inactive: 0
8 | ATF1 (UniProt P18846) | inactive: 0
9 | C10ORF125 (UniProt A2VDF0) | inactive: 0
10 | BAT1 | inactive: 0

Shown comma-delimited: entries from further up
Row,Target,dose-dependent thermal stabilisation call
8,ATF1 (UniProt P18846),inactive: 0
9,C10ORF125 (UniProt A2VDF0),inactive: 0
